Record: PubChem BioAssay AID743454 (Peter MacCallum Cancer Centre, 2014)

- Purpose: 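Search for knock-downs that restore vorinostat killing in resistant colon cancer cells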 (primary screen)
- System: human HCT116-VR colon cancer cells, selected for vorinostat resistance
- Reagents: siRNA pool against human genes, 40 nM siRNA pool
- Time to read-out: vorinostat for 24 h, read-out about 72 h after transfection
- Conditions: vorinostat at 2.5 µM final
- Detection: 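Cell viability by CellTiter-Fluor and caspase 3/7 activity by luminescence, each scaled to mock wells per plate, duplicates averaged, then robust z-scored over all plates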
- Scale: viability robust z-score: higher = more viable cells than screen typical; caspase robust z-score: higher = more caspase 3/7 activity than screen typical
- Rule for the call: 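Hits are knock-downs in viability class RV1/RV2 or caspase class CA1/CA2, excluding ones that killed cells in the no-drug cell-count arm; hits then retested with single siRNAs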
Here is one part, drawn at random, of about 18,000 deposited reagents. In the full data, 450 (2.5%) got an active call. 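Single biological run; no consistent viability z cut-off exists, so the class columns, not z-scores, define the calls.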 Reagents against one gene are numbered here.

gene symbol | pool no. | viability hit class | caspase hit class | viability robust z-score | caspase robust z-score | outcome
SPTBN2 | 1 | no change | no change | -0.6 | 3.75 | inactive
FCER1G | 1 | no change | no change | 0.34 | -0.21 | inactive
AGK | 1 | no change | no change | 0.12 | -0.35 | inactive
WRN | 1 | no change | no change | -1.25 | 2.7 | inactive
PRR5-ARHGAP8 | 1 | no change | no change | 2.7 | 0.35 | inactive
PSMA5 | 1 | no change | no change | -3.72 | 3.12 | inactive
BEST3 | 1 | no change | no change | 0.43 | 2.42 | inactive
CNTNAP4 | 1 | no change | no change | 0.08 | -0.86 | inactive
KLK11 | 1 | no change | no change | -0.46 | 0.1 | inactive
AGT | 1 | no change | no change | -0.33 | 0.3 | inactive
IDH3A | 1 | no change | no change | -0.19 | -1.18 | inactive
HEMK2 | 1 | no change | no change | -0.07 | 0.72 | inactive
ZNF317 | 1 | no change | no change | -1.46 | 1.19 | inactive
PPP1CA | 1 | no change | no change | -0.14 | -0.06 | inactive
AK4 | 1 | no change | no change | 0.8 | -0.12 | inactive
AK4 | 2 | no change | no change | 0.02 | -0.21 | inactive
ZNF667 | 1 | no change | no change | 0.6 | -0.73 | inactive
SMARCB1 | 1 | no change | no change | -1.32 | -0.28 | inactive
STPG4 | 1 | no change | no change | 0.26 | -0.46 | inactive
MON1A | 1 | no change | no change | 0.16 | 1.89 | inactive
TRMT10B | 1 | no change | no change | 0.5 | 1.1 | inactive
TNIP1 | 1 | no change | no change | 0.82 | -0.7 | inactive
JPH4 | 1 | no change | no change | 0.22 | 2.48 | inactive
DNAJC9 | 1 | no change | no change | 1.62 | -0.43 | inactive
OR51L1 | 1 | no change | no change | -2.23 | 4.18 | inactive
ITM2C | 1 | no change | no change | -0.98 | 3.98 | inactive
FAU | 1 | no change | no change | -4.66 | -1.93 | inactive
MAFB | 1 | no change | no change | 0.04 | -0.51 | inactive
TMEM132E | 1 | no change | no change | 0.22 | -0.36 | inactive
SCGN | 1 | no change | no change | -0.55 | 1.57 | inactive
BOD1 | 1 | no change | no change | -1.26 | -0.95 | inactive
DUT | 1 | no change | no change | 1.1 | 0.94 | inactive
ERLEC1 | 1 | no change | no change | -1.44 | 0.4 | inactive
ARHGEF35 | 1 | no change | no change | -0.44 | 0.98 | inactive
KIAA1217 | 1 | no change | no change | 0.98 | 0.12 | inactive
MBD3 | 1 | no change | no change | -0.01 | 0.25 | inactive
ERICH3 | 1 | no change | no change | -0.86 | 2.67 | inactive
PALS1 | 1 | no change | no change | 1.67 | -0.74 | inactive
PTDSS1 | 1 | no change | no change | 0.16 | 0.86 | inactive
LMTK3 | 1 | no change | CA2 (caspase activation) | -1.35 | 3.68 | active
DOC2A | 1 | no change | no change | -0.1 | 1.34 | inactive
POU5F1 | 1 | no change | no change | 1.01 | 1.07 | inactive
HECA | 1 | no change | no change | -0.57 | -0.47 | inactive
TRMT2A | 1 | no change | no change | -1.24 | 1.28 | inactive
LRFN5 | 1 | no change | no change | -0.1 | 0.26 | inactive
PCDHB10 | 1 | no change | no change | 1.17 | -0.52 | inactive
SNAPC4 | 1 | no change | no change | -0.6 | 1.87 | inactive
NUP153 | 1 | no change | no change | -2.57 | 3.17 | inactive
USP1 | 1 | no change | no change | -0.17 | -0.4 | inactive
TSR1 | 1 | no change | no change | -0.84 | -1.38 | inactive
CREBL2 | 1 | no change | no change | -1.85 | 1.13 | inactive
FGF7 | 1 | no change | no change | -1.25 | -0.1 | inactive
AMER2 | 1 | no change | no change | -2.19 | -0.15 | inactive
THAP8 | 1 | no change | no change | -1.02 | 0.42 | inactive
IARS2 | 1 | no change | no change | 0.78 | -0.6 | inactive
ABCG1 | 1 | no change | no change | 2.18 | 3.85 | inactive
KCTD2 | 1 | no change | no change | 0.52 | 1.88 | inactive
